Experimental data as given in patent publication US20210040201A1.
Changes are numbered by the printed parent chain. No constants are given. Whether binding was seen depends on the method and setting. Some results given as binding are weak or reduced against the parent protein; the word gives no strength.

Sequences of proteins named here, by UniProt entry; tags and fusion partners are left off. A change or cut given only in a name is not applied to a line headed by its entry.
UniProt Q495A1: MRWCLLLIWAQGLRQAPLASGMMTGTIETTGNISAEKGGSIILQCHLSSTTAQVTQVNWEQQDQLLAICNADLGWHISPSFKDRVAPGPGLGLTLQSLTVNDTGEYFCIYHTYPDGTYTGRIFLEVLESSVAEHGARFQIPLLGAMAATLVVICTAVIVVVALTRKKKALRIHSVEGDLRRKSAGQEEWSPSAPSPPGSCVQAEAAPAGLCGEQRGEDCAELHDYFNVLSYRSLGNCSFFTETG

B1: ADI-30263 Fab (Fab, V domains shown)
VH: QVQLVQSGAEVKKPGASVKVSCKASGYTFLSYYMNWVRQAPGQGLEWMGIIDPSGGRTSYAQKFQGRVTMTRDTSTSTVYMELSSLRSEDTAVYYCARARYPSSWPYGTDVWGQGTTVTVSS
VL: DIQMTQSPSSLSASVGDRVTITCRASQSINSYLNWYQQKPGKAPKLLIYAASSLQSGVPSRFSGSGSGTDFTLTISSLQPEDFATYYCQQSLLTPFTFGGGTKVEIKR
B2: ADI-30268 Fab (Fab, V domains shown)
VH: B1 VH with L30G, N35G, Q62R, Y101T, T109M
VL: B1 VL
B3: ADI-30267 Fab (Fab, V domains shown)
VH: B1 VH with L30R, N35S, Y60F, S103E, T109M
VL: B1 VL
B4: ADI-30278 Fab (Fab, V domains shown)
VH: QVQLVQSGAEVKKPGASVKVSCKASGYTFTEYYMHWVRQAPGQGLEWMGIISPSAGSTKYAQKFQGRVTMTRDTSTSTVYMELSSLRSEDTAVYYCARDHDIRLAGRLADYWGQGTLVTVSS
VL: DIQMTQSPSSVSASVGDRVTITCRASQGISSWLAWYQQKPGKAPKLLISAASSLQSGVPSRFSGSGSGTDFTLTISSLQPEDFATYYCQQAVILPITFGGGTKVEIKR
B5: ADI-30272 Fab (Fab, V domains shown)
VH: B4 VH with K59S, R103A, L104A
VL: B4 VL
B6: ADI-30283 Fab (Fab, V domains shown)
VH: EVQLLESGGGLVQPGGSLRLSCAASGFTFSPYGMSWVRQAPGKGLEWVSSISGSGGRTYYADSVKGRFTISRDNSKNTLYLQMNSLRAEDTAVYYCAKDPGTDSSGYYYIWRYWGQGTLVTVSS
VL: EIVMTQSPATLSVSPGERATLSCRASQSVSSNLAWYQQKPGQAPRLLIYSASTRATGIPARFSGSGSGTEFTLTISSLQSEDFAVYYCQQYVPHPPFTFGGGTKVEIKR
B7: ADI-30288 Fab (Fab, V domains shown)
VH: B6 VH with S30G, S50A, G56A, R57S, Y59W, Y60H, S105T
VL: B6 VL
B8: ADI-30286 Fab (Fab, V domains shown)
VH: B6 VH with S30G, S50A, G56A, R57S, Y59W, D103H, S104Y
VL: B6 VL
B9: ADI-27238 (antibody, human IgG4 S228P, kappa, F234A L235A, V domains shown)
VH: B1 VH with L30T, N35S, D52N, R57S, T109M
VL: B1 VL
B10: ADI-30267 (antibody, human IgG4 S228P, kappa, F234A L235A, V domains shown)
VH: B1 VH with L30R, N35S, Y60F, S103E, T109M
VL: B1 VL
B11: ADI-27297 (antibody, human IgG4 S228P, kappa, F234A L235A, V domains shown)
VH: B4 VH with E31S, S52N, A55G, K59S, R103A, L104A
VL: B4 VL
B12: ADI-30272 (antibody, human IgG4 S228P, kappa, F234A L235A, V domains shown)
VH: B4 VH with K59S, R103A, L104A
VL: B4 VL

What follows are binders tested against Human TIGIT-FC (human) (UniProt Q495A1) (assay: BLI (ForteBio), Fab on human TIGIT-FC).

binding, binds:
B1, B2, B3, B4, B5, B6, B7, B8

These binders were tested against Human TIGIT expressed on the surface of cells (human) (UniProt Q495A1) (assay: flow cytometry competition: yeast-expressed antibody titrated together with 50 nM human CD155-mouse IgG2a Fc on CHOS cells overexpressing human TIGIT; CD155 left on the cells detected with APC anti-mouse Fc).

binding, binds:
B9, B10, B11, B12

Each binder was assayed against Human TIGIT expressed on the surface of cells (human) (UniProt Q495A1) (assay: flow cytometry, yeast-expressed antibody titrated on CHO cells stably expressing human TIGIT, PE-labelled anti-human secondary antibody, median fluorescence intensity).

binding, binds:
B9, B10, B11, B12

The binders below were run against Human TIGIT expressed on the surface of cells (human) (UniProt Q495A1) (assay: flow cytometry, yeast-expressed antibody on CHOS cells expressing human TIGIT).

binding, binds:
B10, B12
